At least one compound was matched to its structure with a doubt left.
Assay: Test for encapsulating rate of drugs in nanoparticles encapsulating double drugs
Format: physicochemical
Details: trend as pH of the aqueous mixture solution increased (pH 7.5 to 11, FIG. 1)
Description: The synthesized nanoparticles encapsulating double drugs were placed in a concentrating centrifuge tube, and perform centrifugation at a speed of 4,000 rpm for 30 minutes.
(1). Encapsulating Rate of Cisplatin
The clear solution in the concentrating centrifuge tube was diluted 20 folds and mixed with 0.14% solution of o-phenylenediamine in dimethylformamide at a ratio of 1:1, the mixture was heated at 100° C. for 30 minutes and then was cooled in a refrigerator at −20° C. for 10 minutes, finally, the solution was examined for the peak value at a wavelength of 705 nm with UV-visual spectrum, and content of non-encapsulated Cisplatin was converted from the peak value, thereby giving the encapsulating rate of Cisplatin.
(2). Encapsulating Rate Test of Demethoxycurcumin
The nanoparticles on the filter membrane of the concentrating centrifuge tube were re-dissolved in double-distilled water, the solution was mixed with methanol at a ratio of 1:1, and the mixture was analyzed using HPLC. The determination was performed at a flow rate of 1 mL/min under the detection condition at a wavelength of 425 nm, using C18 as stationary phase and acetonitrile-0.3% FA (50:50, v/v) as mobile phase, and the detection result was converted into the concentration of demethoxycurcumin to obtain the encapsulating rate of the drug.

COc1cc(/C=C/C(O)=C/C(=O)/C=C/c2ccc(O)cc2)ccc1O [demethoxycurcumin]
encapsulating rate: decreased

From US20170027877A1, “DRUG COMPOSITION AND METHOD FOR PREPARING THE SAME” (priority 2015, published 2017)
